# Percent effect of library compounds

The chains behind the UniProt entries cited, without tags or fusion partners.
UniProt P9WPC5, whole entry: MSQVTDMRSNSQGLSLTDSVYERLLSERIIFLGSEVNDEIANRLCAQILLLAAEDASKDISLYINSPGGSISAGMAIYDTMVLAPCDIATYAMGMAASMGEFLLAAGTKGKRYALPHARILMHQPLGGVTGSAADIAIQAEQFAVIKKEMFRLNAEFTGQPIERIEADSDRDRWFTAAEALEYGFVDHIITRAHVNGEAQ
UniProt P9WPC3, whole entry partner: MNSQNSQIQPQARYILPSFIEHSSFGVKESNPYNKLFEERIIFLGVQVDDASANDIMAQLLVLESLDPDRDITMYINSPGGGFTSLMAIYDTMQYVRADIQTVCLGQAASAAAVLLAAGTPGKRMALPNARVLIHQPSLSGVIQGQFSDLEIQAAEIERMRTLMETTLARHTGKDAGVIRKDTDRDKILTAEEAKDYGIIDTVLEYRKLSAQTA
UniProt P9WNZ1, whole entry: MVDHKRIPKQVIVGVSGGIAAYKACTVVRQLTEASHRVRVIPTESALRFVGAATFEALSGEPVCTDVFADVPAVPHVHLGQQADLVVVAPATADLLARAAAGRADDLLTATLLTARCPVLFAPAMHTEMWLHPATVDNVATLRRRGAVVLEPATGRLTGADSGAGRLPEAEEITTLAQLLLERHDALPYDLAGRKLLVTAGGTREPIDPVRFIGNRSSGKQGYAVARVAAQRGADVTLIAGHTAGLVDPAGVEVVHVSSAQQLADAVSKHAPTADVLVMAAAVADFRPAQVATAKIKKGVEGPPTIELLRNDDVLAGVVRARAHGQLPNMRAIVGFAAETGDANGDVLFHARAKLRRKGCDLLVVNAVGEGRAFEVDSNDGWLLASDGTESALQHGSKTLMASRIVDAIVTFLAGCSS

Source: ChEMBL document CHEMBL3988442, “University of Dundee, Small-Polar-MMV Screening Library” (2021).

A: 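Assay of Toxoplasma gondii numbers, read through their beta-galactosidase reporter with a colour substrate. Concentration: 10 µM. Higher reads as fewer parasites (inferred from which compounds were picked for retests). Size under these conditions: about 67,000 compounds, about 260 of them at 50% or above in at least one test.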
B: 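Protease assay of ClpP1P2, read by the AMC dye that it sets free. Target: ClpP1P2, Mycobacterium tuberculosis (UniProt P9WPC5 and UniProt P9WPC3). Concentration: 50 µM. Higher reads as stronger inhibition, judged from the few compounds that gave an IC50. Most other retested compounds had strongly negative values. Of about 69,000 compounds tested this way, about 10 (0.015%) reached 50% or more in at least one test.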
C: 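Whole-parasite assay of Trypanosoma brucei over 72 hours; the read-out is not stated. Tested at 30 µM. Higher reads as stronger inhibition (inferred: compounds with an IC50 in retests scored well above the rest). Values scatter widely below zero; nearly all retest evidence comes from the higher of the two concentrations used. Size under these conditions: about 64,000 compounds, about 940 of them at 50% or above in at least one test.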
D: 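Enzyme assay of CoaBC with a phosphate dye (Biomol Green) read at 650 nm. Target: Coenzyme A biosynthesis protein CoaBC, Mycobacterium tuberculosis (UniProt P9WNZ1). Compounds at 30 µM. Higher reads as stronger inhibition, judged from the few compounds that gave an IC50. Most strong results did not repeat in a second test. Of about 67,000 compounds tested this way, about 40 (0.06%) reached 50% or more in at least one test.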

Results are given as percent effect. The controls that fix the scale are not given in the record; negative values are as filed. This is an unselected part of the compounds tested. A dash means the value is not listed here; it may have been measured.

| Compound | A | B | C | D |
|---|---|---|---|---|
| `CN(CCc1ccccn1)C(=O)CCC1CCCN(c2ncccn2)C1` (centres unmarked) | 3.393 | -10.25 | -18.56 | 7.006 |
| `Cc1nc(Nc2nnc(C)s2)cc(C2CCCN2)n1` (centres unmarked) | - | -20.68 | - | 2.891 |
| `CCn1ccnc1CN1CCN(CC(O)c2ccc(OC)cc2)CC1` (centres unmarked) | 24.04 | -13.97 | - | 1.535 |
| `CNC(=O)N1CCC2(COCc3c(C)nc(NCc4ccco4)nc32)C1` (centres unmarked) | -20.28 | 1.423 | - | 4.583 |
| `CCNC(=O)NC(=O)CNC(C)(C)c1ccc2c(c1)OCO2` | -8.946 | -9.813 | -1.69 | -1.535 |
| `O=C(Cn1nnn(-c2cccs2)c1=O)N(CC1CCOC1)C1CC1` (centres unmarked) | 0.6215 | -2.926 | -28.27 | 3.293 |
| `CCN1C(=O)C2(CCOCC2)c2cc(NC(=O)c3cc(C)n[nH]3)ccc21` | 2.712 | -6.018 | -44.08 | 0.1631 |
| `NC(=O)C1CCN(c2nc3nccc(-c4ccccc4)c3c(=O)[nH]2)CC1` | 18.05 | -10.88 | 13.68 | 15.7 |
| `CCc1nc(C2CCCN2CC(=O)N2CCc3ccccc32)no1` (centres unmarked) | 2.585 | -6.061 | -12.94 | 6.378 |
| `COc1ccc(CCN2CCCC(CN(C)Cc3[nH]cnc3C)C2)cc1` (centres unmarked) | 3.313 | -10.13 | 11.78 | -1.139 |
| `CN1CCN(Cc2cn3c(n2)CN(C(=O)N2CCCC2)CC3)CC1` | 6.527 | -13.88 | -4.767 | -23.23 |
| `Cc1nc(C)n(CC2CCCN(CC(=O)Nc3cc(C)on3)C2)n1` (centres unmarked) | -4.923 | -26.9 | - | 5.115 |
| `CNc1nc2c(s1)C(c1c(F)cccc1Cl)CC(=O)N2` (centres unmarked) | 5.38 | -8.002 | 20.61 | 9.312 |
| `O=C(CCn1cncn1)Nc1ccc(F)cc1OCC1CC1` | -11.71 | -6.011 | -43.93 | -4.645 |
| `[H][C@@]12OCCN(C(=O)c3ccncc3)[C@@]1([H])CC[C@H]2OCCN(C)C` | 14.7 | - | -31.69 | - |
| `Cc1cc(CN(C)C(=O)C2CC(=O)N(Cc3cccnc3)C2)on1` (centres unmarked) | 5.906 | 4.666 | -44.09 | -2.033 |
| `CC1CCN(c2nc3c(cnn3-c3ccccc3)c(=O)[nH]2)CC1` | -2.791 | 4.99 | 9.767 | 13.64 |
| `CCCN1CCCC(O)(c2nc(C)c(COc3ccccc3)s2)CC1` (centres unmarked) | 4.155 | -4.469 | 37.82 | 9.202 |
| `O=C1CC2(CCCC2)CC(=O)N1Cc1nccs1` | 1.898 | 1.288 | 11.09 | -5.732 |
| `O=C1N(c2cccc(Cl)c2)Cc2nc(=O)[nH]n21` | 13.78 | 3.26 | -8.388 | 9.208 |
| `CCN(Cc1nc2c(cnn2C)c(=O)[nH]1)Cc1cccs1` | -1.713 | 61.15 | 4.681 | 1.538 |
| `O=C(NCc1ccccc1CO)C1COc2ccccc21` (centres unmarked) | -19.26 | -12.98 | -46.01 | -0.9828 |
| `COc1ccc2c(c1)CC(NCc1cccc(NC(C)=O)c1)CC2` (centres unmarked) | -23.02 | -8.619 | - | 5.6 |
| `CCc1nc(CN2CCC(C(=O)N(C)C)CC2)cs1` | -11.43 | 8.153 | -9.689 | 11.95 |
| `CC(C)NC(=O)[C@H]1C[C@@H]2CN(C(=O)NCCc3ccccc3)C[C@H]1O2` | - | 15.05 | - | -3.361 |
| `Cc1ccc(CN2CCCC2(C(N)=O)c2cnccn2)c(C)c1` (centres unmarked) | 4.643 | 6.752 | 2.855 | -0.9685 |
| `O=C(c1cnccn1)N1CC[C@H]2C[C@@H](c3ccncn3)O[C@@H]2C1` | - | -5.271 | - | 1.681 |
| `COc1ccc(-n2ccc(CNCc3cccc(OC)c3)n2)cc1` | -1.447 | -6.215 | -3.463 | -9.127 |
| `O=C(O)C(F)(F)F.[H][C@@]12CN(C(=O)C(C)C)CCC[C@]1(C(=O)N(C)C)CN(c1ccccn1)C2` | 23.23 | - | -13.61 | - |
| `COc1cc(CNC(C)Cn2cccn2)cc2c1OCO2` (centres unmarked) | - | 18.52 | - | 1.556 |
| `CCN1C(=O)C(c2ccccc2)CC12CCN(Cc1cccnc1)CC2.O=C(O)C(F)(F)F.O=C(O)C(F)(F)F` (centres unmarked) | -9.257 | - | -9.603 | - |
| `Cn1ccc(C(=O)N(CC(F)(F)F)c2cccc(Cl)c2)cc1=O` | -5.224 | 5.405 | -22.61 | 0.8547 |
| `CNC(=O)CCNC(=O)c1ccccc1N1CCOCC1` | 1.037 | -12.04 | -50.09 | 1.333 |
| `Cc1cc(F)ccc1CN1CCCC(O)(CN2CCCC2)C1` (centres unmarked) | - | 8.438 | 54.93 | 6.027 |
| `O=C(Cc1ccccc1)N1CC(=O)N(Cc2ccco2)CC(O)C1` (centres unmarked) | -39.23 | 1.344 | -33.96 | -1.211 |
| `Cc1noc(C)c1CN(C)Cc1cnc(N2CCOCC2)nc1` | 4.875 | 6.727 | -19.29 | -1.21 |

3 of the entries, repeated:

| Compound | A | B | C | D |
|---|---|---|---|---|
| `O=C1N(c2cccc(Cl)c2)Cc2nc(=O)[nH]n21` | 13.78 | 3.26 | -8.388 | 9.208 |
| `O=C(O)C(F)(F)F.[H][C@@]12CN(C(=O)C(C)C)CCC[C@]1(C(=O)N(C)C)CN(c1ccccn1)C2` | 23.23 | - | -13.61 | - |
| `Cc1nc(C)n(CC2CCCN(CC(=O)Nc3cc(C)on3)C2)n1` (centres unmarked) | -4.923 | -26.9 | - | 5.115 |